The source of these data is publication PMC12867014, “Angiopoietin-like 3 monomers are abundant in human plasma but are unable to inhibit endothelial lipase” (JCI Insight, 2025).

The target in this assay is human ANGPTL3 L124A (His-tagged) (human) (UniProt Q9Y5C1). The assay can be described thus: SEC; Superdex 200 of pooled human serum, alone or spiked with conditioned media of recombinant wild-type or L124A human ANGPTL3 (L124A also run without serum); total ANGPTL3, trimeric ANGPTL3 and ANGPTL3/8 complexes in the fractions measured by dedicated immunoassays.

Results are given in words; binding and its absence hold for the method and conditions named. Tags and fused reporters may be left off the sequences shown.

B1: human ANGPTL3 L124A (His-tagged) (protein, UniProt Q9Y5C1 17-460)
chain: SRIDQDNSSFDSLSPEPKSRFAMLDDVKILANGLLQLGHGLKDFVHKTKGQINDIFQKLNIFDQSFYDLSLQTSEIKEEEKELRRTTYKLQVKNEEVKNMSLELNSKAESLLEEKILLQQKVKYLEEQLTNLIQNQPETPEHPEVTSLKTFVEKQDNSIKDLLQTVEDQYKQLNQQHSQIKEIENQLRRTSIQEPTEISLSSKPRAPRTTPFLQLNEIRNVKHDGIPAECTTIYNRGEHTSGMYAIRPSNSQVFHVYCDVISGSPWTLIQHRIDGSQNFNETWENYKYGFGRLDGEFWLGLEKIYSIVKQSNYVLRIELEDWKDNKHYIEYSFYLGNHETNYTLHLVAITGNVPNAIPENKDLVFSTWDHKAKGHFNCPEGYSGGWWWHDECGENNLNGKYNKPRAKSKPERRRGLSWKSQNGRLYSIKSTKMLIHPTDSESFE
Turning to B1, the binding entry is “no binding”.
